Assay results published in PMC11323569 (mBio, 2024).
These are yes or no findings as the source states them, for the method shown.

Biological target: PrgK_(SLT-CHAP) (residues 530-871) (Enterococcus faecalis (plasmid pCF10)) (UniProt Q5G3P4)
Test: non-reducing SDS-PAGE; both purified

Substance: PrgK_(SLT-CHAP) (residues 530-871) (from UniProt Q5G3P4 530-871) (domain or fragment)
- binding: no binding (condition: with the reducing agent TCEP)
